The supplement of paper PMC10849652
Some of the results follow.

Amino acid sequences for entries named in this document (tags omitted). A change or cut given only in a name is not applied to a line headed by its entry.
UniProt Q6NW29: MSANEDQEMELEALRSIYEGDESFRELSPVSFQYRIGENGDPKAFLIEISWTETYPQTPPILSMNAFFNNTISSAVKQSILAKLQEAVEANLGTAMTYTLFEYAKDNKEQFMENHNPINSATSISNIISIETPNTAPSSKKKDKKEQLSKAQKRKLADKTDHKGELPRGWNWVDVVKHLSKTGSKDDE
UniProt Q96T51: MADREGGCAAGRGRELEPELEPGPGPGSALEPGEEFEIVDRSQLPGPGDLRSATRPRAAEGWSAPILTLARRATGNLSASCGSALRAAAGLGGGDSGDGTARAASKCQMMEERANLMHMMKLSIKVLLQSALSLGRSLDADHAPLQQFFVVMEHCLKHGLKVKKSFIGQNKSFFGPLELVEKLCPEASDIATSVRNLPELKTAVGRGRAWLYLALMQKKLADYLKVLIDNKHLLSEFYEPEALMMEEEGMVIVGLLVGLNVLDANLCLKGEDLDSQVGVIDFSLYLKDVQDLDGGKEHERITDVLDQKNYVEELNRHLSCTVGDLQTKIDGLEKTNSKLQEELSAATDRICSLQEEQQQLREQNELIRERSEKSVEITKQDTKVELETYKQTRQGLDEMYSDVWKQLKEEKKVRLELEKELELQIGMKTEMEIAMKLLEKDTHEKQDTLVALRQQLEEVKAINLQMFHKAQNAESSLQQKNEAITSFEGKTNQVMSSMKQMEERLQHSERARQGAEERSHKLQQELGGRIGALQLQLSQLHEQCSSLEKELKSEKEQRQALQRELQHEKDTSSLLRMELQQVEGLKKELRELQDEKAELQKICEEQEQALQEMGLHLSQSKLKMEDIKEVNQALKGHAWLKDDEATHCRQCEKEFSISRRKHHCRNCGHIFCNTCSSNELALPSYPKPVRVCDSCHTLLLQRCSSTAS
UniProt P31350, whole entry, looked up: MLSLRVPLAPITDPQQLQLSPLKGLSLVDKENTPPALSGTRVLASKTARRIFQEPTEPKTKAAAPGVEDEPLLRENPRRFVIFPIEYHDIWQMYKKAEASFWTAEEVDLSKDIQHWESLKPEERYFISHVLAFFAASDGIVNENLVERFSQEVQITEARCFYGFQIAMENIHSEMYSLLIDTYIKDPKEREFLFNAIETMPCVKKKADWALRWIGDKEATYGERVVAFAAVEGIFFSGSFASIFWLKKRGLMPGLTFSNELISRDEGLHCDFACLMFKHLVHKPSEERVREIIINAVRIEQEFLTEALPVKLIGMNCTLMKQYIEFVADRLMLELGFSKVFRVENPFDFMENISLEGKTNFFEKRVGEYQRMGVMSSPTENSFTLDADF
UniProt Q14684: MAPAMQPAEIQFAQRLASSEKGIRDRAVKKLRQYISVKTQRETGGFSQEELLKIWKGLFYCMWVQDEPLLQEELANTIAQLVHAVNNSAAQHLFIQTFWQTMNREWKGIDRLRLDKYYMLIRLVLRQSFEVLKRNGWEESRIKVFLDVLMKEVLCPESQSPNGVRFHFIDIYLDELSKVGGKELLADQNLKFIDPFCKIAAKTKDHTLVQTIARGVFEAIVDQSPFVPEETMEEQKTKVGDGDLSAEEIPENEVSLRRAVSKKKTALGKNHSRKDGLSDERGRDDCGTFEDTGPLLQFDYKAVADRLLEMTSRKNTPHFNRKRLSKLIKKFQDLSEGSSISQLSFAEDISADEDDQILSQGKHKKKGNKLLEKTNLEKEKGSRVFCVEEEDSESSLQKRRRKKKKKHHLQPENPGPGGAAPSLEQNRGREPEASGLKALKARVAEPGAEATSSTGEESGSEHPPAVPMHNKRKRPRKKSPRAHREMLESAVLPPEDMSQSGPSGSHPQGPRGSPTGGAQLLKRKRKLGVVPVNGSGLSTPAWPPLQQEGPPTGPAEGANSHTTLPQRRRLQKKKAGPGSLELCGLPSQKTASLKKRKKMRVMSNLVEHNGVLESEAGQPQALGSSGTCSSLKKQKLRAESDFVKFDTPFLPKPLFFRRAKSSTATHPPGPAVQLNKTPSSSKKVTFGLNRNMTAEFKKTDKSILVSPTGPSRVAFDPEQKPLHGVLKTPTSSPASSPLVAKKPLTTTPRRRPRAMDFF
UniProt P78345: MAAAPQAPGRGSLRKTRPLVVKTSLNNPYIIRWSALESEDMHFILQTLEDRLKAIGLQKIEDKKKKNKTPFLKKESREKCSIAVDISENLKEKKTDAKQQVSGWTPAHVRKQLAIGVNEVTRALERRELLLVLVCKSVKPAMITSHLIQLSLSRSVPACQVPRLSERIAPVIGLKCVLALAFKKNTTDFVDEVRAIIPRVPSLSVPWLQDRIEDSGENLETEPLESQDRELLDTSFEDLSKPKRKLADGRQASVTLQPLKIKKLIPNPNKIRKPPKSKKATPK

Legend:
Assay in all cases: log2 fold change, soluble protein after heating vs DMSO (PISA); higher = thermal stabilisation; K562 lysate, 10 uM; active = over 0.2 and 3.5 SD of the protein, either way, in both replicates (recomputed)
lapatinib = compound: CS(=O)(=O)CCNCc1ccc(-c2ccc3ncnc(Nc4ccc(OCc5cccc(F)c5)c(Cl)c4)c3c2)o1 [lapatinib]
Outline: (§1)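 A 30 min treatment with 10 μM compound was applied to crude K562 extract at 1 mg/mL protein in PBS pH 7.4 with 1 mM MgCl2. Heating for 3 min spanned 48°C-58°C, after which aliquots were pooled, adjusted to 0.5% NP-40 at 4°C and spun at 21,000xg for 90 min. TMTpro 16plex LC-MS/MS of the supernatant, with channel sums equalised, gave values recorded as log-two fold change in thermal stability against solvent controls, from duplicates.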

pictilisib = compound: CS(=O)(=O)N1CCN(Cc2cc3nc(-c4cccc5[nH]ncc45)nc(N4CCOCC4)c3s2)CC1 [pictilisib]
Outline: as §1

crizotinib = compound: C[C@@H](Oc1cc(-c2cnn(C3CCNCC3)c2)cnc1N)c1c(Cl)ccc(F)c1Cl [crizotinib]
Outline: as §1

[1] = compound: C[C@H](C1=CC=C(C=C1)C(=O)NC2=C3C=CNC3=NC=C2)N
Outline: as §1

duvelisib = compound: C[C@H](Nc1ncnc2nc[nH]c12)c1cc2cccc(Cl)c2c(=O)n1-c1ccccc1 [duvelisib]
Outline: as §1

gandotinib = compound: Cc1cc(Nc2cc(CN3CCOCC3)c3nc(C)c(Cc4ccc(Cl)cc4F)n3n2)n[nH]1 [gandotinib]
Outline: as §1

tozasertib = compound: Cc1cc(Nc2cc(N3CCN(C)CC3)nc(Sc3ccc(NC(=O)C4CC4)cc3)n2)n[nH]1 [tozasertib]
Outline: as §1

doramapimod = compound: Cc1ccc(-n2nc(C(C)(C)C)cc2NC(=O)Nc2ccc(OCCN3CCOCC3)c3ccccc23)cc1 [doramapimod]
Outline: as §1

bafetinib = compound: Cc1ccc(NC(=O)c2ccc(CN3CC[C@H](N(C)C)C3)c(C(F)(F)F)c2)cc1Nc1nccc(-c2cncnc2)n1 [bafetinib]
Outline: as §1

[2] = compound: Cc1cccc(CC(=O)N2CCc3c2ccc(-c2cn(C)c4ncnc(N)c24)c3F)n1
Outline: as §1

nilotinib = compound: Cc1cn(-c2cc(NC(=O)c3ccc(C)c(Nc4nccc(-c5cccnc5)n4)c3)cc(C(F)(F)F)c2)cn1 [nilotinib]
Outline: as §1

[3] = compound: Cc1nc(Nc2n[nH]c3c2CN(C(=O)N[C@H](CN(C)C)c2ccccc2)C3(C)C)c2sccc2n1
Outline: as §1

dasatinib = compound: Cc1nc(Nc2ncc(C(=O)Nc3c(C)cccc3Cl)s2)cc(N2CCN(CCO)CC2)n1 [dasatinib]
Outline: as §1

[4] = compound: Cc1ncc(-c2ccnc(Nc3ccc(S(C)(=O)=O)cc3)n2)n1C(C)C
Outline: as §1

[5] = compound: Cn1cc(-c2ccc3c(c2)CCN3C(=O)Cc2cccc(C(F)(F)F)c2)c2c(N)ncnc21
Outline: as §1

quisinostat = compound: Cn1cc(CNCC2CCN(c3ncc(C(=O)NO)cn3)CC2)c2ccccc21 [quisinostat]
Outline: as §1

tipifarnib = compound: Cn1cncc1[C@@](N)(c1ccc(Cl)cc1)c1ccc2c(c1)c(-c1cccc(Cl)c1)cc(=O)n2C [tipifarnib]
Outline: as §1

[6] = compound: NC(=O)Nc1cc(-c2cccc(F)c2)sc1C(=O)N[C@H]1CCCNC1
Outline: as §1

[7] = compound: NC(=O)c1cnc(N[C@@H]2CCCC[C@@H]2N)nc1Nc1cccc(-n2nccn2)c1
Outline: as §1

[8] = compound: NC1(c2ccc(-c3nc4ccn5c(=O)[nH]nc5c4cc3-c3ccccc3)cc2)CCC1
Outline: as §1

Measured: log2 fold change

RWDD4 (UniProt Q6NW29)
inactive: lapatinib 0.007 | pictilisib 0.02 | crizotinib -0.006 | [1] -0.084 | duvelisib -0.033 | gandotinib 0.071 | tozasertib 0.006 | doramapimod -0.008 | bafetinib 0.021 | [2] -0.025 | nilotinib -0.002 | [3] -0.019 | dasatinib 0.013 | [4] 0.051 | [5] 0.05 | quisinostat -0.013 | tipifarnib -0.012 | [6] 0.006 | [7] -0.002 | [8] -0.052

RPS26 (UniProt P62854)
inactive: lapatinib 0.027 | pictilisib 0.015 | crizotinib 0.04 | [1] -0.105 | duvelisib 0.025 | gandotinib 0.061 | tozasertib -0.043 | doramapimod -0.077 | bafetinib -0.114 | [2] 0 | nilotinib 0.018 | [3] -0.019 | dasatinib 0.059 | [4] -0.025 | [5] -0.11 | quisinostat -0.022 | tipifarnib -0.061 | [6] 0.077 | [7] -0.01 | [8] 0.026

RUFY1 (UniProt Q96T51)
inactive: lapatinib -0.008 | pictilisib -0.011 | crizotinib -0.013 | [1] -0.011 | duvelisib 0.017 | gandotinib -0.041 | tozasertib 0.002 | doramapimod 0.012 | bafetinib -0.018 | [2] 0.028 | nilotinib -0.017 | [3] 0.018 | dasatinib -0.003 | [4] -0.01 | [5] 0.022 | quisinostat -0.018 | tipifarnib -0.036 | [6] 0.013 | [7] 0.028 | [8] -0.009

RRM2 isoform 2 (UniProt P31350)
inactive: lapatinib 0.041 | pictilisib 0.007 | crizotinib 0.035 | [1] 0.006 | duvelisib -0.009 | gandotinib 0.099 | tozasertib -0.059 | doramapimod 0.085 | bafetinib 0.01 | [2] -0.097 | nilotinib -0.019 | [3] -0.016 | dasatinib 0.045 | [4] 0.011 | [5] 0.009 | quisinostat -0.023 | tipifarnib -0.002 | [6] -0.03 | [7] -0.019 | [8] 0.043

RRP1B (UniProt Q14684)
inactive: lapatinib -0.007 | pictilisib -0.035 | crizotinib 0.005 | [1] 0.027 | duvelisib -0.005 | gandotinib -0.078 | tozasertib -0.011 | doramapimod 0.023 | bafetinib -0.141 | [2] 0.016 | nilotinib -0.025 | [3] 0.046 | dasatinib -0.018 | [4] 0.04 | [5] 0.027 | quisinostat 0.031 | tipifarnib -0.019 | [6] 0.054 | [7] 0.028 | [8] -0.037

RPS3 (UniProt P23396)
inactive: lapatinib -0.017 | pictilisib 0.001 | crizotinib -0.003 | [1] 0.008 | duvelisib 0.012 | gandotinib -0.014 | tozasertib 0.002 | doramapimod -0.002 | bafetinib 0.003 | [2] -0.026 | nilotinib -0.006 | [3] -0.001 | dasatinib 0.031 | [4] -0.014 | [5] 0.02 | quisinostat 0.017 | tipifarnib 0.024 | [6] 0 | [7] -0.014 | [8] 0.01

RPS15 (UniProt P62841)
inactive: lapatinib -0.013 | pictilisib -0.022 | crizotinib -0.05 | [1] -0.134 | duvelisib 0.015 | gandotinib 0.127 | tozasertib -0.049 | doramapimod 0.03 | bafetinib -0.017 | [2] 0.154 | nilotinib 0.011 | [3] -0.011 | dasatinib 0.007 | [4] -0.053 | [5] -0.038 | quisinostat -0.097 | tipifarnib 0.008 | [6] 0.013 | [7] -0.004 | [8] 0.002

RPP38 (UniProt P78345)
inactive: lapatinib 0.011 | pictilisib 0.02 | crizotinib 0.001 | [1] -0.084 | duvelisib -0.03 | gandotinib 0.027 | tozasertib 0.029 | doramapimod 0.011 | bafetinib -0.014 | [2] 0.06 | nilotinib -0.017 | [3] 0.023 | dasatinib 0.012 | [4] -0.033 | [5] -0.012 | quisinostat -0.008 | tipifarnib 0.032 | [6] -0.018 | [7] -0.002 | [8] 0.013
